The results in this text go back to paper PMC3549492.

Results are given in words; binding and its absence hold for the method and conditions named. For some assays here: Binding seen in cells or lysates may run through a third protein. Some binding calls cover weakened binding; strength is not graded here. For some assays here: Sequences can lack the tags named with a protein.

The target in test [1] is T1, Doublecortin (Dcx), endogenous, human fetal cortex (human (endogenous in fetal cortex)) (UniProt O43602).
T1 sequence: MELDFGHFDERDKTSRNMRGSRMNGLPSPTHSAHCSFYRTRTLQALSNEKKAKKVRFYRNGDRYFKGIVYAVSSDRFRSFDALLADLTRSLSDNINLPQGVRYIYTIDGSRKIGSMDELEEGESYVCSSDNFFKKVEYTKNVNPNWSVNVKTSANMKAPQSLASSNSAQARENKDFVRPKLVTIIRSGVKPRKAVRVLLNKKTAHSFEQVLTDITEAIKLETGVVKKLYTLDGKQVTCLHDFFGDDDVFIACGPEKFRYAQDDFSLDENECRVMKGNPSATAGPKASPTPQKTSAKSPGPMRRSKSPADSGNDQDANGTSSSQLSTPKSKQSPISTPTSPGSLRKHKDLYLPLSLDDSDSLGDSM
In words: co-IP; endogenous proteins from human fetal cortex (23 weeks) lysate; antisera to Dcx (C terminus) and to Kif1a; 2 mM AMP-PNP; BSA-blocked protein G beads; western blot.

The target of test [2] is Kif1a, endogenous, human fetal cortex (human (endogenous in fetal cortex)) (UniProt Q12756). Described as above.
Test [3] deals with T2, N-terminal HaloTag human KIF1A (amino acids 1-361) fusion protein (human) (UniProt Q12756).
T2 sequence: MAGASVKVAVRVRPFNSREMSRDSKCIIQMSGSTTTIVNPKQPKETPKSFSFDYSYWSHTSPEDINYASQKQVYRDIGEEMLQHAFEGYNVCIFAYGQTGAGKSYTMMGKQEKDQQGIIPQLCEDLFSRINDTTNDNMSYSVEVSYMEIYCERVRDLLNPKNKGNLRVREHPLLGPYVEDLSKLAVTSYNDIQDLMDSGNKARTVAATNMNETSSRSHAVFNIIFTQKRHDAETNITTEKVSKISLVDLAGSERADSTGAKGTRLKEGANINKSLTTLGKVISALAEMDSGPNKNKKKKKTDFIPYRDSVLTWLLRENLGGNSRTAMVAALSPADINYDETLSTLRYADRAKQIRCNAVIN
The experiment in a line: cross-linking; data not shown; no MTs and no nucleotide; concentrations >15 μM; method taken from the sentence before; both purified.

The target in test [4] is T2, N-terminal HaloTag human KIF1A (amino acids 1-361) fusion protein (human). The experiment in a line: pull-down; HaloTag-Kif1a (1-361) on HaloLink magnetic beads; 5 μM of each protein; 4 mM ATP, ADP or AMP-PNP; no MTs or tubulin; 100 mM Tris pH 7.4, 150 mM NaCl, 4 mM MgCl2, 1 mM EGTA, 1 mM DTT, 0.5% Triton X-100; room temperature; SDS-PAGE, silver staining; both purified.

Test [5] has the same target. The experiment in a line: cross-linking; BS3 (1 mM, 100-fold excess); 10 μM each of Dcx, Kif1a and MTs; 4 mM ATP; BRB80 pH 6.9; room temperature; SDS-PAGE, silver staining, protein identification by mass spectrometry; both purified.

Regarding “Kif1a, endogenous, human fetal cortex (from UniProt Q12756 1-1690)”, in test [1], the binding entry is recorded as “binds”.

B1: Doublecortin (Dcx), endogenous, human fetal cortex (protein, UniProt O43602 1-365)
chain: T1 sequence
With B1, the binding entry in test [2] is listed as “binds weakly”.

B2: overexpressed and purified full-length human Dcx (protein, UniProt O43602 1-365)
chain: T1 sequence
For B2, the binding result in test [3], in test [4] and in test [5] was “binds” throughout.
